According to article PMC4416337:
Results are given in words; binding and its absence hold for the method and conditions named. In cells and extracts the contact can be indirect. Some results given as binding are weak or reduced against the parent protein; the word gives no strength. Sequences can lack the tags named with a protein.

T1: recombinant glutathione S-transferase-AKIN11 fusion protein (Arabidopsis thaliana) (UniProt P92958)
T1 sequence: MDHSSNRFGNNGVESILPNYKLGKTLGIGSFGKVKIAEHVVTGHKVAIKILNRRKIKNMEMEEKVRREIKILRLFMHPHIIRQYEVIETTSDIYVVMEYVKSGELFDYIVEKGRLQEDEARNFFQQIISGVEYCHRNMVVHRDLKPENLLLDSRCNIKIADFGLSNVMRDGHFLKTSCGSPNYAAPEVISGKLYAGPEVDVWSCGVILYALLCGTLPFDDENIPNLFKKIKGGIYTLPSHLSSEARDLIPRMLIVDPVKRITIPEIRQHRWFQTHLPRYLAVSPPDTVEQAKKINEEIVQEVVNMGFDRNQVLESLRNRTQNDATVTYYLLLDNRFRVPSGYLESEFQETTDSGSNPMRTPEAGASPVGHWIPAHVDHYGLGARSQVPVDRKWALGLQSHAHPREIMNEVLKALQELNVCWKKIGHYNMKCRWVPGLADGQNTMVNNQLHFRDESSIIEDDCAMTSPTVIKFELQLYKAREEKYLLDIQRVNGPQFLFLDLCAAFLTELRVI

T2: C-terminal half of YFP fused to AKIN11 (Arabidopsis thaliana) (UniProt P92958)
T2 sequence: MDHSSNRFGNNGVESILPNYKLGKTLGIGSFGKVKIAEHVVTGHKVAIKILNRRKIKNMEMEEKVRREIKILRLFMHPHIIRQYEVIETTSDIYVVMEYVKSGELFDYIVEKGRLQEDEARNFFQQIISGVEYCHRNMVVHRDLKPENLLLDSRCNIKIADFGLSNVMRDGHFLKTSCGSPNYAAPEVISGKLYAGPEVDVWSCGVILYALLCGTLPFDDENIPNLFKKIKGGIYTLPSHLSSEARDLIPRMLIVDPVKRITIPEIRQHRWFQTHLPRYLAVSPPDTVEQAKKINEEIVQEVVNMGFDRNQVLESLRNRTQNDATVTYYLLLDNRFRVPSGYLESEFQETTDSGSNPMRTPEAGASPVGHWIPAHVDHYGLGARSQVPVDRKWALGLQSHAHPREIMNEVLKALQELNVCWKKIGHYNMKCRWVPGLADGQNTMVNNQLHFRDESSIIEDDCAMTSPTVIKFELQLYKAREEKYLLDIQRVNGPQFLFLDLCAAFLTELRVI


How the values were obtained:
[1] = biological target: T1, recombinant glutathione S-transferase-AKIN11 fusion protein (Arabidopsis thaliana); test: pull-down; in vitro pull-down: recombinant GST fusions (or GST alone) as bait, 35S-labelled in vitro translated IDD8 as prey; bound proteins eluted by boiling in SDS-PAGE loading buffer, SDS-PAGE and autoradiography; only the target purified
[2] = biological target: T2, C-terminal half of YFP fused to AKIN11 (Arabidopsis thaliana); test: split reporter; BiFC: nYFP and cYFP fusions cotransfected into Arabidopsis mesophyll protoplasts (PEG-calcium), 23°C for 16 h, confocal microscopy; CFP-ICE1 as nuclear marker

binding [1]	binding [2]	Binder
binds		35S-labelled IDD8 polypeptides produced by in vitro translation (protein, UniProt Q9FFH3 1-466, [35S] methionine-labeled) MTSEVLQTISSGSGFAQPQSSSTLDHDESLINPPLVKKKRNLPGNPDPEAEVIALSPTTLMATNRFLCEVCGKGFQRDQNLQLHRRGHNLPWKLKQRTSKEVRKRVYVCPEKTCVHHHSSRALGDLTGIKKHFCRKHGEKKWTCEKCAKRYAVQSDWKAHSKTCGTREYRCDCGTIFSRRDSFITHRAFCDALAEETAKINAVSHLNGLAAAGAPGSVNLNYQYLMGTFIPPLQPFVPQPQTNPNHHHQHFQPPTSSSLSLWMGQDIAPPQPQPDYDWVFGNAKAASACIDNNNTHDEQITQNANASLTTTTTLSAPSLFSSDQPQNANANSNVNMSATALLQKAAEIGATSTTTAATNDPSTFLQSFPLKSTDQTTSYDSGEKFFALFGSNNNIGLMSRSHDHQEIENARNDVTVASALDELQNYPWKRRRVDGGGEVGGGGQTRDFLGVGVQTLCHPSSINGWI
	binds	N-terminal half of yellow fluorescent protein fused to IDD8 (protein, UniProt Q9FFH3 1-466) MTSEVLQTISSGSGFAQPQSSSTLDHDESLINPPLVKKKRNLPGNPDPEAEVIALSPTTLMATNRFLCEVCGKGFQRDQNLQLHRRGHNLPWKLKQRTSKEVRKRVYVCPEKTCVHHHSSRALGDLTGIKKHFCRKHGEKKWTCEKCAKRYAVQSDWKAHSKTCGTREYRCDCGTIFSRRDSFITHRAFCDALAEETAKINAVSHLNGLAAAGAPGSVNLNYQYLMGTFIPPLQPFVPQPQTNPNHHHQHFQPPTSSSLSLWMGQDIAPPQPQPDYDWVFGNAKAASACIDNNNTHDEQITQNANASLTTTTTLSAPSLFSSDQPQNANANSNVNMSATALLQKAAEIGATSTTTAATNDPSTFLQSFPLKSTDQTTSYDSGEKFFALFGSNNNIGLMSRSHDHQEIENARNDVTVASALDELQNYPWKRRRVDGGGEVGGGGQTRDFLGVGVQTLCHPSSINGWI
